# Assay results reported in the supplement of paper PMC6411743.
# Sequences of proteins named here, by UniProt entry; tags and fusion partners are left off. A change or cut given only in a name is not applied to a line headed by its entry.
# UniProt Q13506: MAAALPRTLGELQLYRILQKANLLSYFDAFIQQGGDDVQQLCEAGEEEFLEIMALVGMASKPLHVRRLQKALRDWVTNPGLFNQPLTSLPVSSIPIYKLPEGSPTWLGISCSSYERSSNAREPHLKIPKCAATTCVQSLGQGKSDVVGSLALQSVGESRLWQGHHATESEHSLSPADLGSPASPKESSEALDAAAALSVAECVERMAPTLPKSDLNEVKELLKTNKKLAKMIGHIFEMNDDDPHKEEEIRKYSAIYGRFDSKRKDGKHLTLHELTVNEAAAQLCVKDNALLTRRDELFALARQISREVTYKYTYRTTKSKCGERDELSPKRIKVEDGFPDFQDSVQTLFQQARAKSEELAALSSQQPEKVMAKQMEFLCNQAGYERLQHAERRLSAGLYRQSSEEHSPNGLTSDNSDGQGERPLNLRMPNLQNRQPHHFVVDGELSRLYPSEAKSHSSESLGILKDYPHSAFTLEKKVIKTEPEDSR
# UniProt O43676, whole entry: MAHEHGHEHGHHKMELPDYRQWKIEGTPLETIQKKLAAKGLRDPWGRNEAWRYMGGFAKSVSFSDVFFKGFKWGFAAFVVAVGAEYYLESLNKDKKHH
# UniProt P55854, whole entry: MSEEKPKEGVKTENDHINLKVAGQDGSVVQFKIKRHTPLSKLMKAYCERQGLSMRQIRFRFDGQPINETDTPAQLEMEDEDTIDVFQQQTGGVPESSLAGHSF
# UniProt P08069, whole entry, looked up: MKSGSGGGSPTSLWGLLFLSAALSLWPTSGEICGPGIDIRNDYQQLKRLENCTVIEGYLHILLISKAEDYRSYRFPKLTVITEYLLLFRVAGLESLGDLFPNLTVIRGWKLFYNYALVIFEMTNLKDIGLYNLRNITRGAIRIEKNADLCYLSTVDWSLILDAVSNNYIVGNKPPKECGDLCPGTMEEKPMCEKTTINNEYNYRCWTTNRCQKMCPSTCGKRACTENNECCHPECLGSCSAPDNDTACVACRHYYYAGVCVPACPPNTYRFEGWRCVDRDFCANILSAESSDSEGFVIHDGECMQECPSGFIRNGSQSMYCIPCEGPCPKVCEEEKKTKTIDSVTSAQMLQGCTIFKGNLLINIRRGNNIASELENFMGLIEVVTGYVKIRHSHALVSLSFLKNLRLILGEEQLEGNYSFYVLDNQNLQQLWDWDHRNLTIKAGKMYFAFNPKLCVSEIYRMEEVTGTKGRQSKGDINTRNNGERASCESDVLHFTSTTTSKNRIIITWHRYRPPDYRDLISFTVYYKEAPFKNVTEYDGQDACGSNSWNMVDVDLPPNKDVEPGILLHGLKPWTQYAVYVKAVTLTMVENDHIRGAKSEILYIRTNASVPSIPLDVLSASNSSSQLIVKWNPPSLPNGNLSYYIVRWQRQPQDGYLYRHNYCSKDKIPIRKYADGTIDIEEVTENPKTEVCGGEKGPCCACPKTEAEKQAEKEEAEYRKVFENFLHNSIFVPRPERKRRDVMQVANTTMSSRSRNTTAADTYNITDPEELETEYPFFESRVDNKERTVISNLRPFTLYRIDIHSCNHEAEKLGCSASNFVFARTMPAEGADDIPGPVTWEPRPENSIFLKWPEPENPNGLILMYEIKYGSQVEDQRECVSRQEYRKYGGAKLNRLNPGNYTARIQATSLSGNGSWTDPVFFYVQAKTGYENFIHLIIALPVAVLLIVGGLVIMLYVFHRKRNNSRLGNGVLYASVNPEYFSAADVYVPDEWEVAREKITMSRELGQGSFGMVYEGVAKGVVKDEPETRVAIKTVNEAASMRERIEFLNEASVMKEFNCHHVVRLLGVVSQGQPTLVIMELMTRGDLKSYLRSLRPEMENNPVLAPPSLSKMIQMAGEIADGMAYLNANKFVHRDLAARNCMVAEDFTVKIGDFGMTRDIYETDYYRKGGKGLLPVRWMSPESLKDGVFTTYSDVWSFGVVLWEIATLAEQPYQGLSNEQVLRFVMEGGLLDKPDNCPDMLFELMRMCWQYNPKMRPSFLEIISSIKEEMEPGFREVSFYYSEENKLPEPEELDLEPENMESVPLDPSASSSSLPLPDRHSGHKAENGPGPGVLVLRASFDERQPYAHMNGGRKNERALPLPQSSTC
# UniProt Q5T8D3: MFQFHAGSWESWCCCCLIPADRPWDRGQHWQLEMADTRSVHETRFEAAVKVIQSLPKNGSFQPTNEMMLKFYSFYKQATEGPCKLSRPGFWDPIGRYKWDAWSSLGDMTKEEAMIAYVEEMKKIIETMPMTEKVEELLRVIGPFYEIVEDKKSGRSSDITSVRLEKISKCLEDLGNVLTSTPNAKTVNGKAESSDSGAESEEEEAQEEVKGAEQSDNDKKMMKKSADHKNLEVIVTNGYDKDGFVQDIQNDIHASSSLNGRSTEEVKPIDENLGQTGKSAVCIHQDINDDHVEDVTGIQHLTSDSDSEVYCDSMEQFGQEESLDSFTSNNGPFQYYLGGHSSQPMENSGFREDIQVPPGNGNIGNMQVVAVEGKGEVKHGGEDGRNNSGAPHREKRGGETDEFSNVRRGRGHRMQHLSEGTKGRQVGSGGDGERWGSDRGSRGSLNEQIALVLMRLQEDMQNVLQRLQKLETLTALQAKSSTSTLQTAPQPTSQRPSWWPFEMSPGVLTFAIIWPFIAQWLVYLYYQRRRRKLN
# UniProt Q15257: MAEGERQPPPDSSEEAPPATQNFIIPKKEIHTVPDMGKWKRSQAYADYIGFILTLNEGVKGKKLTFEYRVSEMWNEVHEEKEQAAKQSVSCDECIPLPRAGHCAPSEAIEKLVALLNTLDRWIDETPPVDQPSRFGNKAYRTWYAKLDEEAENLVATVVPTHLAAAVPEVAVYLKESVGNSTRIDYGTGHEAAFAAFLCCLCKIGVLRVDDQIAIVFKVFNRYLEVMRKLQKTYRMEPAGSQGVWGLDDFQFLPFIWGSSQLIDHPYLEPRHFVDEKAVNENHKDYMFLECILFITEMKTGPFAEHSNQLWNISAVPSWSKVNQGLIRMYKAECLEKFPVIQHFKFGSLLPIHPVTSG
# UniProt A6NED2: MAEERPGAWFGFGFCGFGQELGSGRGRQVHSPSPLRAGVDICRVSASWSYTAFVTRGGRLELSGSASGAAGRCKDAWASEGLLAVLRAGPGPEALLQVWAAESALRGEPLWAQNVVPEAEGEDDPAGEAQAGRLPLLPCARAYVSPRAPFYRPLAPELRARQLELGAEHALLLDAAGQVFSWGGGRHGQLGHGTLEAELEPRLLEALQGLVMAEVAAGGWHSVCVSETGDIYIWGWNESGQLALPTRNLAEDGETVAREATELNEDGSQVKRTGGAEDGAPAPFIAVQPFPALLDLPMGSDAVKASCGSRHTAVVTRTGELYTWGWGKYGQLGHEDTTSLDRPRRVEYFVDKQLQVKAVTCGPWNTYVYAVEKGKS
# UniProt P13010: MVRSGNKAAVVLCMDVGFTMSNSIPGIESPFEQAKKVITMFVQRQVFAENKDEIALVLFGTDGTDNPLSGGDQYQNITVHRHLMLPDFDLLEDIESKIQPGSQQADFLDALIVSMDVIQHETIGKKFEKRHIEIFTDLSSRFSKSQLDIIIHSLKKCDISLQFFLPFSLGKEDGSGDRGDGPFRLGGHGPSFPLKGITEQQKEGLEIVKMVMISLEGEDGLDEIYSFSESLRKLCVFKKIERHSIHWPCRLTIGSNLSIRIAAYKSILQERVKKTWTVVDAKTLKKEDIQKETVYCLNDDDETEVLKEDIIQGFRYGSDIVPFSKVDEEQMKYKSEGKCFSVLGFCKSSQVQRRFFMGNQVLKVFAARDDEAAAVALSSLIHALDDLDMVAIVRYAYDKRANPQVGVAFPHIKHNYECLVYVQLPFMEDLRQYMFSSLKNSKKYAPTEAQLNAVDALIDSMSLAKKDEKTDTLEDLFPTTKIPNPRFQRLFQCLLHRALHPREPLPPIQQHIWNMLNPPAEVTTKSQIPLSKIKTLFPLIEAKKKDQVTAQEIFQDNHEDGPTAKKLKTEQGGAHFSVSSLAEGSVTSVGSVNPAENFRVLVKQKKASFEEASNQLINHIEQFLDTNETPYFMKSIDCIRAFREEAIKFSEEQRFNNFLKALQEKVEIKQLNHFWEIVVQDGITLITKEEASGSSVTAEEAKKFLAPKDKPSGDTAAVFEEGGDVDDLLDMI
# UniProt P43897: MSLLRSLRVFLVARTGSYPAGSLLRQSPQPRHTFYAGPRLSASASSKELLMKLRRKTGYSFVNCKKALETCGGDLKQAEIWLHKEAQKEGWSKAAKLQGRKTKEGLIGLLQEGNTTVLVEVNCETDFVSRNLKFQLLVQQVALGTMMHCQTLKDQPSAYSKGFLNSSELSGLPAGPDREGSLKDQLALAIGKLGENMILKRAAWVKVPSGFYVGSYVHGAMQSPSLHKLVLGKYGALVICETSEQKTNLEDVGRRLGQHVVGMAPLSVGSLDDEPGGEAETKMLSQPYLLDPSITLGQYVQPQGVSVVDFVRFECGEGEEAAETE
# UniProt Q8WV99: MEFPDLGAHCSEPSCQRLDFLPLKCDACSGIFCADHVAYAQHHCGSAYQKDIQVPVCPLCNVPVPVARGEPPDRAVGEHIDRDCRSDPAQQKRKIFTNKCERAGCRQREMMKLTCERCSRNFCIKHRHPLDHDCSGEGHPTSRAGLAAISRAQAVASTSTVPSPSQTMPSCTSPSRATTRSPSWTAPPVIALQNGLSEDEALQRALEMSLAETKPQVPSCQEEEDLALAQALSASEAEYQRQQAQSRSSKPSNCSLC
# UniProt P41732: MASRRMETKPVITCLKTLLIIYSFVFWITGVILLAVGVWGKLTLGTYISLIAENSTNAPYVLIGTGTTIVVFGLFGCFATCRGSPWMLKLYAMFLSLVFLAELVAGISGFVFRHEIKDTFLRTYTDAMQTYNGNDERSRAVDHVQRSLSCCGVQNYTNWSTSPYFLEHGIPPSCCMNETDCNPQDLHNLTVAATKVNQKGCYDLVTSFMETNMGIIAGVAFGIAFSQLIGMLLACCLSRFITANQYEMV
# UniProt Q96GQ7: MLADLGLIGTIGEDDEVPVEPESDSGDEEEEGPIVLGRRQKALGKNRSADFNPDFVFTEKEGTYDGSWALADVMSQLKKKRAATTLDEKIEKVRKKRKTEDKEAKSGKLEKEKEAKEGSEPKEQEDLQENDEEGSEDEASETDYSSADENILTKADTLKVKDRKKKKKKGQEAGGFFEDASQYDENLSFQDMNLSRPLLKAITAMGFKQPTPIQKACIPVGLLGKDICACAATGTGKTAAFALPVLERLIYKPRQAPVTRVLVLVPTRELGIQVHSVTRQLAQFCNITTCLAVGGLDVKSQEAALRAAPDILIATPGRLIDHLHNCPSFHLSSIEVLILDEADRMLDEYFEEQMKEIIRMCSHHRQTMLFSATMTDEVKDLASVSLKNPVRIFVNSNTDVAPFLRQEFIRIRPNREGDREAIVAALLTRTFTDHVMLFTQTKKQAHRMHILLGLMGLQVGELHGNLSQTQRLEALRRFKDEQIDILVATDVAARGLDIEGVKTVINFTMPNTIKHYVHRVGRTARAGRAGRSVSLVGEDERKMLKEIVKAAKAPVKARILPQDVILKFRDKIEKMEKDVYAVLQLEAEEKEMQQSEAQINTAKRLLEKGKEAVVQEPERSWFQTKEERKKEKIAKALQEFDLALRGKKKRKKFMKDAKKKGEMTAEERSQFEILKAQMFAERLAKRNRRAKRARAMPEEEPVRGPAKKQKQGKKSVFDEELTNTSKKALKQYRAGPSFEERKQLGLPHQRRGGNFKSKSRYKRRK
# UniProt P22415: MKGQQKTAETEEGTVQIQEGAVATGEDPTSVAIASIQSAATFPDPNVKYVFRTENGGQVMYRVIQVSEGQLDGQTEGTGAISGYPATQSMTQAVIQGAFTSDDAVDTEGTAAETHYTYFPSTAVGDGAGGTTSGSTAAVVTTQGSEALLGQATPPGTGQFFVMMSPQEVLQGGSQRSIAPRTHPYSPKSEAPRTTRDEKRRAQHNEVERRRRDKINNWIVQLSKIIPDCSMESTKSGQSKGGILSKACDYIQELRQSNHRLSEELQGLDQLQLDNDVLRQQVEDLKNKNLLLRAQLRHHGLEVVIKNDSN
# UniProt Q96RU3: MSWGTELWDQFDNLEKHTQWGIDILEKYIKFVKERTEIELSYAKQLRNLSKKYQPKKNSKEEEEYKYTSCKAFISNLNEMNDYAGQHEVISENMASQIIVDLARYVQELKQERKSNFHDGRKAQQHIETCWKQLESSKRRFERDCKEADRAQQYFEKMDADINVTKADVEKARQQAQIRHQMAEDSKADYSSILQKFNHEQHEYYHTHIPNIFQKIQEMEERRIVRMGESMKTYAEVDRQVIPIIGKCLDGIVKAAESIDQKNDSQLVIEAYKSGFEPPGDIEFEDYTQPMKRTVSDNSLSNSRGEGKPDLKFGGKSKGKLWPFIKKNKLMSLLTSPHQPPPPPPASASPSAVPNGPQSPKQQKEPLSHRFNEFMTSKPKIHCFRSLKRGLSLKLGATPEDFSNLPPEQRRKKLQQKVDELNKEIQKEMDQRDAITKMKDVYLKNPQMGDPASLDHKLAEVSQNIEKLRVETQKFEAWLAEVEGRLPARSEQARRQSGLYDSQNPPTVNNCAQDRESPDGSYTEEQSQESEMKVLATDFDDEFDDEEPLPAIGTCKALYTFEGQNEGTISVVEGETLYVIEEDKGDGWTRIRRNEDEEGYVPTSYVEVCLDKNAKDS
# ± gives the standard deviation of the averaged measurements. Only a part is listed here, and it is no random draw.
# Compound: Nc1ncnc2c1ncn2[C@@H]1O[C@H](COP(=O)(O)OP(=O)(O)NP(=O)(O)O)[C@@H](O)[C@H]1O [adenylyl imidodiphosphate]
# Assay: NP40-soluble protein abundance relative to vehicle (solubility fold change) (ratio); higher = more soluble protein in presence of AMP-PNP
# Method in brief: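 In three independent experiments, Jurkat crude lysate made by Dounce homogenisation was treated for 10 min at room temperature and then 3 min at 37 °C with eight concentrations ranging from 0.1 to 10 mM. It was then solubilised with 0.8% NP40 plus benzonase for 60 min at 4 °C and ultracentrifuged. The supernatant was TMT-labelled for LC-MS/MS, and each value is the fold change against the detergent-processed vehicle for the same replicate, using vsn-normalised intensities.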
Target,NP40-soluble protein abundance (concentration: 1mM),NP40-soluble protein abundance (concentration: 2mM),NP40-soluble protein abundance (concentration: 4mM),NP40-soluble protein abundance (concentration: 6mM),NP40-soluble protein abundance (concentration: 8mM),NP40-soluble protein abundance (concentration: 10mM)
B8ZZS2 and related entries (UniProt Q13506),0.9966 ± 0.0056,1.02 ± 0.019,0.9788 ± 0.0084,1.024 ± 0.0073,1.01 ± 0.029,1.008 ± 0.0093
C9JKQ2 and related entries (UniProt O43676),1.03 ± 0.03,1.01 ± 0.022,1.04 ± 0.037,0.998 ± 0.059,0.988 ± 0.048,1.02 ± 0.018
B7Z3R9 and related entries (UniProt Q8TE99),0.9713 ± 0.0074,0.948 ± 0.026,0.98772 ± 0.00046,0.9951 ± 0.0035,0.9382 ± 0.00078,0.9482 ± 0.0089
A8MU27 and related entries (UniProt P55854),1 ± 0.011,0.979 ± 0.037,0.946 ± 0.048,0.91 ± 0.033,0.897 ± 0.018,0.892 ± 0.063
C9JA08 and related entries (UniProt Q96D46),0.969 ± 0.011,0.954 ± 0.018,0.953 ± 0.033,0.915 ± 0.019,0.911 ± 0.028,0.8882 ± 0.0053
C9J5X1 and related entries (UniProt P08069),0.999 ± 0.02,1.01 ± 0.044,0.997 ± 0.044,0.993 ± 0.029,0.973 ± 0.023,0.9879 ± 0.0068
E2QRF9 and related entries (UniProt O75496),1.01 ± 0.034,1.02 ± 0.03,1.012 ± 0.0034,1 ± 0.023,1.01 ± 0.033,0.973 ± 0.034
B5MCH3 and related entries (UniProt Q8N3C7),0.968 ± 0.019,0.981 ± 0.051,0.96 ± 0.013,0.952 ± 0.053,0.996 ± 0.054,0.9791 ± 0.0056
D6RIF6 and related entries (UniProt Q9P270),1.01 ± 0.028,1.08 ± 0.068,1.085 ± 0.0081,1.07 ± 0.044,1.04 ± 0.054,1.09 ± 0.016
UniProt A3KN83 and related entries,1.03 ± 0.021,0.985 ± 0.035,1.01 ± 0.016,0.964 ± 0.026,0.971 ± 0.017,0.968 ± 0.013
B1ANH0 and related entries (UniProt Q16774),1.01 ± 0.028,1.02 ± 0.032,0.979 ± 0.037,1.07 ± 0.071,1.06 ± 0.065,1.03 ± 0.079
B0QY89 and related entries (UniProt Q9Y262),1 ± 0.031,0.976 ± 0.095,1.03 ± 0.12,1.12 ± 0.12,1.22 ± 0.17,1.24 ± 0.25
A2IDC6 and related entries (UniProt Q13084),0.961 ± 0.042,0.979 ± 0.081,0.916 ± 0.11,0.941 ± 0.12,0.91 ± 0.089,0.91 ± 0.085
B7Z2R7 and related entries (UniProt Q5T8D3),1 ± 0.021,1.05 ± 0.053,0.994 ± 0.052,0.981 ± 0.015,0.941 ± 0.017,0.982 ± 0.033
B7ZM99 and related entries (UniProt Q6UB35),0.983 ± 0.024,0.92 ± 0.098,0.967 ± 0.015,0.973 ± 0.024,0.969 ± 0.018,0.946 ± 0.016
A6PVN5 and related entries (UniProt Q15257),0.982 ± 0.05,0.97 ± 0.035,0.965 ± 0.024,1.05 ± 0.091,1.05 ± 0.081,1.02 ± 0.059
RCCD1 (UniProt A6NED2),1.02 ± 0.028,1.05 ± 0.055,1.03 ± 0.064,1.07 ± 0.057,1.08 ± 0.036,1.09 ± 0.023
B4DLJ1 and related entries (UniProt Q15853),1.03 ± 0.026,1.07 ± 0.067,1.04 ± 0.042,1.04 ± 0.028,1.03 ± 0.034,1.07 ± 0.032
C9JZ81 and related entries (UniProt P13010),1.014 ± 0.01,0.958 ± 0.049,0.966 ± 0.026,0.972 ± 0.016,0.986 ± 0.013,0.9477 ± 0.0081
C9JG32 and related entries (UniProt P43897),0.979 ± 0.066,1.07 ± 0.22,1.02 ± 0.11,1.16 ± 0.21,1.14 ± 0.14,1.24 ± 0.19
C9JEH3 and related entries (UniProt Q13685),1.04 ± 0.03,1.02 ± 0.032,1.04 ± 0.029,1.02 ± 0.029,1.01 ± 0.038,1.02 ± 0.037
B3KVZ3 and related entries (UniProt Q9H3R5),0.995 ± 0.016,1.04 ± 0.041,0.9738 ± 0.0075,1.03 ± 0.11,1.01 ± 0.045,1.04 ± 0.14
B4DEN4 and related entries (UniProt Q8WV99),0.991 ± 0.027,1.02 ± 0.063,1.01 ± 0.08,0.975 ± 0.026,0.985 ± 0.047,1 ± 0.081
B4DDG0 and related entries (UniProt P41732+B4E171+B4DDG0),0.949 ± 0.013,1 ± 0.092,0.9607 ± 0.0023,0.9534 ± 0.0021,0.907 ± 0.014,0.944 ± 0.049
B7Z6D5 and related entries (UniProt Q96GQ7),1.03 ± 0.019,1.01 ± 0.034,1.06 ± 0.045,1.05 ± 0.026,1.08 ± 0.061,1.11 ± 0.05
B1AQP1 and related entries (UniProt P22415),1.04 ± 0.031,1.13 ± 0.13,1.11 ± 0.065,1.09 ± 0.021,1.08 ± 0.017,1.14 ± 0.026
B5MBX0 and related entries (UniProt Q96FF9),1 ± 0.021,1.04 ± 0.058,1 ± 0.021,1.01 ± 0.016,1.02 ± 0.0052,1.02 ± 0.024
C9JF71 and related entries (UniProt Q8TBF5),1.01 ± 0.013,0.992 ± 0.026,0.989 ± 0.027,1.01 ± 0.026,1 ± 0.015,0.9939 ± 0.0047
B7ZL14 and related entries (UniProt Q96RU3),1.031 ± 0.009,1.06 ± 0.062,1.01 ± 0.022,1.01 ± 0.026,0.991 ± 0.034,1 ± 0.046
B7Z779 and related entries (UniProt Q96A25),1.008 ± 0.0063,0.994 ± 0.038,0.986 ± 0.036,1.02 ± 0.022,1.01 ± 0.063,1.02 ± 0.045

# Part of the list above, reduced to NP40-soluble protein abundance (concentration: 10mM) and NP40-soluble protein abundance (concentration: 4mM):
Target,NP40-soluble protein abundance (concentration: 10mM),NP40-soluble protein abundance (concentration: 4mM)
B7Z3R9 and related entries (UniProt Q8TE99),0.9482 ± 0.0089,0.98772 ± 0.00046
B7Z6D5 and related entries (UniProt Q96GQ7),1.11 ± 0.05,1.06 ± 0.045
